Values of other authors as cited in patent publication US3949090A, “Methods and compositions for improving feed efficiency in ruminants using dithiooxamide” (SmithKline Corporation, priority 1974, dated 1976).
For at least one compound, name, drawing or mass did not settle the structure.

System: protein deposition
Settings: compared with acetate; Potter et al., Eskeland et al.; cited from earlier work

SMILES: CCCC(=O)O [butyrate]
- energy metabolites for protein deposition in sheep (in words): better energy metabolites than acetate for protein deposition in sheep
